Measured values as given in PMC5893553.
No constants are given. Whether binding was seen depends on the method and setting. In cells and extracts the contact can be indirect. Some binding calls cover weakened binding; strength is not graded here. For some assays here: Tags and fused reporters may be left off the sequences shown.

By UniProt entry, the sequences of proteins in these tests, tags left out.
UniProt P51608: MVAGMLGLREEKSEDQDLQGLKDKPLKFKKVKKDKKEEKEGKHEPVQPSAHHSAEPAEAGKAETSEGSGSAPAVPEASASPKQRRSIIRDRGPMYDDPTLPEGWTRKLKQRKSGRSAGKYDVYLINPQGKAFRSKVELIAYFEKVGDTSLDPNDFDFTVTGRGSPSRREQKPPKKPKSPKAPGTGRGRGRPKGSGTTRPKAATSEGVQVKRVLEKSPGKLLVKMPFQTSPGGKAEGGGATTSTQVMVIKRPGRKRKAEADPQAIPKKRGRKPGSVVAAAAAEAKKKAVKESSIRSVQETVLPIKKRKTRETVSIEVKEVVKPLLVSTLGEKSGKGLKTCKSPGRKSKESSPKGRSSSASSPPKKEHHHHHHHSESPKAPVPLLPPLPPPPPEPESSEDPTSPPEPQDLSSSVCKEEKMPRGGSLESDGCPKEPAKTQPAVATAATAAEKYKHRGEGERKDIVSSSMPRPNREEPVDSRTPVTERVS

Columns and labels:
[1] = target: T1, endogenous Deaf1 of SKN-SH cells (human (endogenous in SKN-SH)) (UniProt O75398); experiment: co-IP; endogenous proteins; lysates of cells and brain tissue (1500 μg/1 mL) with anti-Deaf1 rabbit antibody, pre-immune IgG or anti-MeCP2 antibody 16 h at 4 °C, protein A-Sepharose; Western blot for MeCP2; Deaf1 −/− MEFs and Deaf1 KO hippocampus as controls
T1 sequence: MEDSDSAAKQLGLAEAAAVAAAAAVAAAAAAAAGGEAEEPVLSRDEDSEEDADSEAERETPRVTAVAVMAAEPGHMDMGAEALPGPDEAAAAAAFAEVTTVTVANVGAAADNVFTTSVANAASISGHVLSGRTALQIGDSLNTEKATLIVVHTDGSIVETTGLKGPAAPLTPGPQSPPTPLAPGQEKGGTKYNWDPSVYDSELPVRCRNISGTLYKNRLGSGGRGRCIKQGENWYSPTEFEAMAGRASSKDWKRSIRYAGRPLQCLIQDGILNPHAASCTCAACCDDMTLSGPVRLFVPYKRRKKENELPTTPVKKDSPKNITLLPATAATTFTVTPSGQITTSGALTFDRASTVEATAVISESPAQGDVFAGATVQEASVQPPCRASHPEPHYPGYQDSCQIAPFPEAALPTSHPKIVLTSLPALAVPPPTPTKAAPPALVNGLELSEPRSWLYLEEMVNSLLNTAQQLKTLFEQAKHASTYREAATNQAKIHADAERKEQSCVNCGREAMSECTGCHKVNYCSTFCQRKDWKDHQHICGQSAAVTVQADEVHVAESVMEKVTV

[2] = target: T2, His-tagged human Deaf1 (pcDNA3-His-human Deaf1) (human) (UniProt O75398); experiment: pull-down; lysate of co-transfected SKN-SH cells (500 μg/500 μL, FLAG buffer) rotated 1 hr at 4 °C with cobalt beads that bind the His tag of Deaf1; Western blot for FLAG
T2 sequence: T1 sequence

Row | binding [1] | binding [2] | Substance
1 | binds | – | endogenous MeCP2 of SKN-SH cells (from UniProt P51608 1-486)
2 | – | binds | FLAG-tagged human MeCP2 (pFLAG-human MeCP2) (from UniProt P51608 1-486)
